Measurements reported in PubChem BioAssay AID504793 (Drosophila RNAi Screening Center, 2011).

- Assay: 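Genes required for cells to halt at G2/M after double-strand DNA breaks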 (primary screen)
- Cell system: Drosophila S2R+ cells
- Reagent: long dsRNA against Drosophila genes, about 0.25 µg dsRNA per well
- Duration: 4 days of dsRNA, then 4 hours of drug before read-out
- Treatment: doxorubicin 0.5 µM for 4 hours to cause double-strand breaks, in cells also given a low, harmless dose of dsRNA against nbs to sensitise the assay
- Measured: 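Per-well count of mitotic cells stained for phospho-histone H3 after doxorubicin exposure, used as mitotic index; counts are raw and not normalised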
- Direction: mitotic cells: higher = more cells in mitosis, weaker G2 arrest
- Hit rule: 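Genes are called active only when high mitotic counts were reproduced with independent dsRNAs and mitosis was checked for delay without damage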
- Meaning of the calls: active = confirmed in follow-up tests; inactive = not confirmed
The screen tested about 23,000 reagents; below is a random part of those that have a named target and a result. Over the whole deposit, 62 (0.27%) are marked active. 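Calls come from follow-up tests whose scores are not deposited, so confirmed genes may have low counts here; counts are not normalised per plate.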 Raw values are not corrected between plates. A number with no mark means an inactive call. The numbers tell different reagents against one gene apart. Names joined by + are all predicted targets of the reagent. No sequences are given here.

CG11523 #1
- mitotic cells, replicate 1: 9

CG11523 #2
- mitotic cells, replicate 1: 3

Vav (Vav guanine nucleotide exchange factor) #1
- mitotic cells, replicate 1: 9

Vav (Vav guanine nucleotide exchange factor) #2
- mitotic cells, replicate 1: 12

dpr10 (defective proboscis extension response 10) #1
- mitotic cells, replicate 1: 9

dpr10 (defective proboscis extension response 10) #2
- mitotic cells, replicate 1: 3

dpr10 (defective proboscis extension response 10) #3
- mitotic cells, replicate 1: 5

CG33310 #1
- mitotic cells, replicate 1: 5

CG33310 #2
- mitotic cells, replicate 1: 8

Muc4B (Mucin 4B) #1
- mitotic cells, replicate 1: 6

Muc4B (Mucin 4B) #2
- mitotic cells, replicate 1: 9

Muc4B (Mucin 4B) #3
- mitotic cells, replicate 1: 3

CG31953 (retired record) + gkt
- mitotic cells, replicate 1: 1

CG4287 #1
- mitotic cells, replicate 1: 11

CG4287 #2
- mitotic cells, replicate 1: 3

cGlr2 (cGAS-like receptor 2)
- mitotic cells, replicate 1: 3

lbk (lambik)
- mitotic cells, replicate 1: 4

CG2794
- mitotic cells, replicate 1: 6

SamDC (S-adenosylmethionine decarboxylase)
- mitotic cells, replicate 1: 4

Ddx56 (DEAD-box helicase 56) #1
- mitotic cells, replicate 1: 5

Ddx56 (DEAD-box helicase 56) #2
- mitotic cells, replicate 1: 3

CG32988
- mitotic cells, replicate 1: 2

ItgaPS4 (Integrin alphaPS4 subunit)
- mitotic cells, replicate 1: 4

Jon99Ci (Jonah 99Ci) #1
- mitotic cells, replicate 1: 10

Jon99Ci (Jonah 99Ci) #2
- mitotic cells, replicate 1: 5

CG6961 + CG18259 #1
- mitotic cells, replicate 1: 3

CG6961 + CG18259 #2
- mitotic cells, replicate 1: 4

CG6961 + CG18259 #3
- mitotic cells, replicate 1: 4

CG31784
- mitotic cells, replicate 1: 1

kkv (krotzkopf verkehrt)
- mitotic cells, replicate 1: 2

CG6966 #1
- mitotic cells, replicate 1: 5

CG6966 #2
- mitotic cells, replicate 1: 1

mRpS33 (mitochondrial ribosomal protein S33)
- mitotic cells, replicate 1: 8

CG30423
- mitotic cells, replicate 1: 7

Ldh (Lactate dehydrogenase)
- mitotic cells, replicate 1: 7

Dp (DP transcription factor)
- mitotic cells, replicate 1: 9

CCKLR-17D3 (Cholecystokinin-like receptor at 17D3) #1
- mitotic cells, replicate 1: 36

CCKLR-17D3 (Cholecystokinin-like receptor at 17D3) #2
- mitotic cells, replicate 1: 3

CCKLR-17D3 (Cholecystokinin-like receptor at 17D3) #3
- mitotic cells, replicate 1: 10

Sema1b (Semaphorin 1b) #1
- mitotic cells, replicate 1: 5

Sema1b (Semaphorin 1b) #2
- mitotic cells, replicate 1: 11

Aven (Apoptosis and caspase activation inhibitor)
- mitotic cells, replicate 1: 2

CG16879 (retired record) #1
- mitotic cells, replicate 1: 9

CG16879 (retired record) #2
- mitotic cells, replicate 1: 10
